Data from doi:10.1101/377390.

Sequences of proteins named here, by UniProt entry; tags and fusion partners are left off. A change or cut given only in a name is not applied to a line headed by its entry.
UniProt O01819: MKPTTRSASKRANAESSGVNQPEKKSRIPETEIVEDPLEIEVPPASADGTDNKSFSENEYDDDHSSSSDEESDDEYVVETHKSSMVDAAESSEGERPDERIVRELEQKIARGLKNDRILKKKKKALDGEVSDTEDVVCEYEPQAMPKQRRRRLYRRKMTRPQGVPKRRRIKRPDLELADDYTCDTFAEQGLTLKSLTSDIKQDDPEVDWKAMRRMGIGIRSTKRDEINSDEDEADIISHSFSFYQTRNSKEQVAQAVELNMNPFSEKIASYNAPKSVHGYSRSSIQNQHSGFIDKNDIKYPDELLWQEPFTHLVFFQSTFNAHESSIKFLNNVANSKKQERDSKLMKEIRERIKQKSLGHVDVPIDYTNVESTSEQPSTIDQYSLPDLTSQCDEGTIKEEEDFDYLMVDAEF

Target: T1, PRDE-1 (C. elegans) (UniProt O17828)
T1 sequence: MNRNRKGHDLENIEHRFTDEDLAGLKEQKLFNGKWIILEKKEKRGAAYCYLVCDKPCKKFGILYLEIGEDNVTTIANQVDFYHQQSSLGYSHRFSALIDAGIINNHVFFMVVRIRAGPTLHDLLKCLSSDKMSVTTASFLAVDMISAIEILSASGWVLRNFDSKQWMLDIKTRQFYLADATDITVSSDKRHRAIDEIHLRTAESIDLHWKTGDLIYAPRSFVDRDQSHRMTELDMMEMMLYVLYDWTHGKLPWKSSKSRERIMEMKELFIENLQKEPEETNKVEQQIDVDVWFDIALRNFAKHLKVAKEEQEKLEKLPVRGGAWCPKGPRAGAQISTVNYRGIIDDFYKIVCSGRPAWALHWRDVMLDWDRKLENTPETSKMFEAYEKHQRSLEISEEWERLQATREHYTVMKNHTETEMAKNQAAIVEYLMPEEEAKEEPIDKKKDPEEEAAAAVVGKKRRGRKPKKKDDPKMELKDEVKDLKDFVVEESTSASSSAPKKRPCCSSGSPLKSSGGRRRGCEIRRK
Experiment: affinity purification with mass spectrometry

TOFU-4 (from UniProt O01819) was tested, and the binding was “binds”.

These are yes or no findings as the source states them, for the method shown. Binding seen in cells or lysates may run through a third protein. These calls come from enrichment with a bait or labelling near it, and not all partners need be listed.
